Test [1] deals with T1, FLAG-SAV1 (chicken Salvador homolog 1, FLAG-tagged) (chicken) (UniProt E1C3T7).
T1 sequence: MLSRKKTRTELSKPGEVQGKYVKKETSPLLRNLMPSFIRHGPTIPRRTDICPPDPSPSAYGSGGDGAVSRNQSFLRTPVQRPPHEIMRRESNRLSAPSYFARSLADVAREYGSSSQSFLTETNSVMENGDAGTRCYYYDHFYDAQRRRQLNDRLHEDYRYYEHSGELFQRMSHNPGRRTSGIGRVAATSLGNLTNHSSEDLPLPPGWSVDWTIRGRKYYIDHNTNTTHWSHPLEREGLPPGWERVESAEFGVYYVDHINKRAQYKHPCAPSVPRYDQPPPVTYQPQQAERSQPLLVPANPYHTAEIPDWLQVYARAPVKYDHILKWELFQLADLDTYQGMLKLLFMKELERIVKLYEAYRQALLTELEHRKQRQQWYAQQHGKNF
Briefly: co-IP; chicken granulosa cells transfected with pFLAG-SAV1 for 24 h; lysates immunoprecipitated with an antibody to FLAG (control: chicken IgG); 50 mM Tris-HCl pH 7.4, 150 mM NaCl, 0.2 mM PMSF, 1% Triton X-100, 1 mM EDTA; immunoblot for the endogenous partners.

The target of test [2] is T2, GST-SAV1 fusion protein (chicken SAV1) (chicken) (UniProt E1C3T7).
T2 sequence: T1 sequence
Briefly: pull-down; CHO cells co-transfected with pSF-GST-SAV1 (or empty pSF-GST) and one of pcDNA3.0-STK4, STK3, LATS1, MOB2 for 24 h; lysates incubated with Glutathione Sepharose 4B beads overnight, washed three times with lysis buffer; western blot.

Results are given in words; binding and its absence hold for the method and conditions named. In cells and extracts the contact can be indirect. A result given as binding can be weak or reduced; the word gives no strength. Where a sequence is shown, tags or fusion partners need not be part of it.

As to “LATS1 (chicken large tumor suppressor homolog 1), endogenous”, the binding entry in test [1] is listed as “binds”. For the substance “MOB2 (chicken), expressed from pcDNA3.0-MOB2”, the binding entry in test [2] is listed as “binds”.

For the substance MOB2 (chicken), endogenous, in test [1], the binding result is recorded as “binds”. Take “LATS1 (chicken), expressed from pcDNA3.0-LATS1”: the binding entry in test [2] is “binds”.

These data come from PMC4978403.
